Here are results for 2 molecules from PMC10345115.

The chains behind the UniProt entries cited, without tags or fusion partners.
UniProt Q92731: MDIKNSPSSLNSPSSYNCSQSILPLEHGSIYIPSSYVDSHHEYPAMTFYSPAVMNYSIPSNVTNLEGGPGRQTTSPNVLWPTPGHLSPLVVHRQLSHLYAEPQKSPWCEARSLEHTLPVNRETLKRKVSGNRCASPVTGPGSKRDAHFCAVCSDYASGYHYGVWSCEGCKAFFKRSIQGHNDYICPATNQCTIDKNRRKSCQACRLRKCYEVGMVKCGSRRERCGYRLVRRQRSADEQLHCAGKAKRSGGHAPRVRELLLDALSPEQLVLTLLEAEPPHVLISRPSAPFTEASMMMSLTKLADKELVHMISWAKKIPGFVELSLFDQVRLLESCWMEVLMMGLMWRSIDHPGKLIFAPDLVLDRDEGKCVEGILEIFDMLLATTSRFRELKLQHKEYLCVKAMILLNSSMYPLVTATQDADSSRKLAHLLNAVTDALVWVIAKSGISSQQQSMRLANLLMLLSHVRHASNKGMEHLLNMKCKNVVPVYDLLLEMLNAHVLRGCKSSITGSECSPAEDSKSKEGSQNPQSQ

These are yes or no findings as the source states them, for the method shown. Binding seen in cells or lysates may run through a third protein. Some binding calls cover weakened binding; strength is not graded here. Sequences can lack the tags named with a protein.

One assay addresses Myc-ERβ (UniProt Q92731). Nature of the assay: co-IP; 500 µg total protein from transfected cells; immunoprecipitation with 1 µg c-Myc antibody or Flag antibody at 4 °C overnight, Protein A Sepharose beads; western blot. In general terms: Immunoblotting shows a protein as a band on a membrane.
Another assay deals with His-tagged ERβ (UniProt Q92731). Kind of assay: pull-down; in vitro His-tag pull-down with bacterially expressed GST/His-fused proteins; His-ERβ as bait.

B1: Flag-WFDC3 (protein, UniProt Q8IUB2 25-231)
chain: GEHAKEGECPPHKNPCKELCQGDELCPAEQKCCTTGCGRICRDIPKGRKRDCPRVIRKQSCLKRCITDETCPGVKKCCTLGCNKSCVVPISKQKLAEFGGECPADPLPCEELCDGDASCPQGHKCCSTGCGRTCLGDIEGGRGGDCPKVLVGLCIVGCVMDENCQAGEKCCKSGCGRFCVPPVLPPKLTMNPNWTVRSDSELEIPVP
As for B1, the binding result with Myc-ERβ is “binds”.

B2: GST-WFDC3 (protein, UniProt Q8IUB2 25-231)
chain: GEHAKEGECPPHKNPCKELCQGDELCPAEQKCCTTGCGRICRDIPKGRKRDCPRVIRKQSCLKRCITDETCPGVKKCCTLGCNKSCVVPISKQKLAEFGGECPADPLPCEELCDGDASCPQGHKCCSTGCGRTCLGDIEGGRGGDCPKVLVGLCIVGCVMDENCQAGEKCCKSGCGRFCVPPVLPPKLTMNPNWTVRSDSELEIPVP
As to B2, in the assay with His-tagged ERβ, the binding result was “binds”.
